# Measured values published in PubChem BioAssay AID1508600 (Functional Genomics Laboratory (NCATS/FGL), 2020).
# Among all 53,000 sequences or so, about 3,700 (7%) were called active.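 The calls were made as follows: active = gene knockdowns whose robust z-score for IL-1 alpha signal is at least 2 or at most -2, so actives lie on both sides; inactive = the rest.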 Some of the results follow.
# Test: Components of the Cytosolic LPS Sensing Pathway: Gene Identification via Genome-wide siRNA Screen;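 also: robust z of the log signal after scaling to non-targeting control siRNA wells of the plate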
# Conditions: RAW264.7 macrophages, IL-1a HTRF, actives lie on both sides, screened at 100 nM (by protocol), cells primed 5 h with Pam3CSK4 first
# Outline: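 Supernatant IL-1a by HTRF from RAW264.7 cells primed with Pam3CSK4 (5 hours) and transfected with LipidA (24 hour) after 48h siRNA knockdown at 100 nM; cell viability checked with CellTiter-Glo.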
row,Sequence,z-score
1,CGGUCCUGAGGAAGUGUUATT against Wfdc1,inactive: 0.655
2,GGAAAAUGUCCGUAAAAGGTT against Dtx2,inactive: 0.196
3,GCACUCACGAUCAUCUUUGTT against Has1,inactive: -0.513
4,GCACUAAUGACUACAUCCGTT against Cmtm4,inactive: 1.05
5,GGAGAAGAUGCCAAUCAAGTT against Mdm1,inactive: 0.336
6,GGACAUUGCUACACAACUCTT against Akp3,inactive: -1.26
7,GGCAAAUCACAUCCAACAATT against Cyp2c39,inactive: -1.74
8,GGGUGCCUUAAAAAAACUCTT against Olfr136,inactive: 0.786
9,GCGAAAGCCUCUCCAUAAGTT against Lnx1,inactive: -0.663
10,GGACAAGAGGAGCUUUUGCTT against Id3,inactive: -0.446
11,GGCAAUACAGGCAUCUUCATT against Vmn1r-ps8,inactive: -1.54
12,GGGAAACAAAAAGCAGAUATT against Ccdc47,inactive: 0.325
13,GGCCUGCUUUGUUCUGAAUTT against Olfr846,active: -2.53
14,GGAGUUUCUCCAAGAAAAATT against Agfg2,inactive: 0.0363
15,GGCUACGACAGAAAAGACUTT against Mrpl58,inactive: 0.983
16,GGACUUUCGUCGUACUCGUTT against Terf1,inactive: -1.73
17,GGACCAUAAAACAAGUAUCTT against Carns1,inactive: -1.01
18,CCAAACCAGGUGUUGUCUUTT against Esam,inactive: 0.308
19,CCAACACGUUGCACAGAGUTT against A830073O21Rik,inactive: 0.611
20,CCUAAUUAUAACCCUGACCTT against Olfr845,inactive: 0.682
21,GCGAUUGUCCAAGAAUUCCTT against Crcp,inactive: 0.822
22,UCACCUACAGCGGAUCUCATT against Oxt,inactive: -0.821

row,Sequence,z-score
1,CGACUGGAAUCUAAUAACUTT against Fgf2,inactive: 0.987
2,GGAUGCACUCAAGAAUUACTT against Ccdc65,active: 2.11
3,GGAGUGCUUGAAGAACAUATT against Kcnk7,inactive: -1.26
4,GGACAAAAGACUUGAAUUUTT against Alox15,inactive: 1.86
5,CCAUUCCAGUUAUGUCAAUTT against Pus3,inactive: -1.06
6,CCUUGGGACUGACUGUAAGTT against Ptrh2,inactive: -0.887
7,GGAGUACACGUUCAUCAUCTT against Clstn2,inactive: 0.643
8,CGAAACACUCAAGGUUGUATT against Creb3l2,inactive: -0.314
9,GGUAUUCCCUAGAGAUAAATT against Olfr1241,inactive: 0.732
10,GGGUGUAGCAUUGUCACAGTT against Olfr1133,active: 2.32
11,GGAACCUUUGAGAAUAUGATT against Spats2,inactive: 0.17
12,CCGUAUAAGUUUACGUUUATT against Tm9sf2,inactive: 0.761
13,GGCUAACCAGAGGAAAAACTT against Rph3a,active: -2.19
14,GGGCAAUCCUGAAUUGGUUTT against Atp2b4,inactive: 1.23
15,GGAGUUCAAAGAUGCAAUUTT against Zfyve27,active: 2.33
16,GGGUUUCUGGGACUUCACCTT against Bgn,inactive: -0.911
17,GGUAACCUUGGAGAAGGUCTT against Mapkbp1,inactive: 0.647
18,GCCUGAAUCCGCCACAUUGTT against Cx3cl1,inactive: 1.6
19,GGUGCUGGUGGACAUUGCATT against L3hypdh,inactive: -1.32
20,GGAUCUACAUUGCUAAAGUTT against Dbil5,inactive: 0.0731
21,CGGACCUACAAACAAUAACTT against Ccl9,inactive: 0.11
22,GCCAUUCGCACAUACCAGATT against Exoc4,inactive: 1.01

row,Sequence,z-score
1,UGAAAGCAUAAGCAAUACATT against Ercc6l2,inactive: -1.29
2,CCAUUGUGAUCAAGAUAAATT against Cggbp1,inactive: -0.35
3,GCGGAACAUCUUAGCUUAATT against Perm1,inactive: -0.111
4,UCGGCCAUGUAGUAUGGGATT against Xlr3a,inactive: 0.42
5,GGAAAAAGAUUGAGGAAGUTT against Uhrf1,inactive: -1.13
6,GGACAUUAACGAGCUGAACTT against Ube2m,inactive: 0.67
7,GGACUUGAGAAAAGAUUAUTT against Shroom1,inactive: 1.03
8,CCUGAGAUGAUAAUCCUGCTT against Sprr2i,inactive: -0.501
9,GGUUAUCUUGAAUAAAGCUTT against Zfp346,inactive: -0.303
10,GGAUUGAUAAUUUCCUGAATT against Nol6,inactive: 0.6
11,GGGCUGUGAUCUUAUUUCATT against Tpk1,inactive: 1.75
12,GGCCUAUGUCCACAAGAGUTT against Magohb,inactive: -0.999
13,GCCCUUAAUUGAACAAAUATT against Otud7b,inactive: 0.0529
14,GGAGGCUGAAAAGUUCCGGTT against Card19,inactive: 0.135
15,GGGUUUUUAGCUAAUACUATT against Pdk1,inactive: 1.86
16,GGAAGACUCUUGGAUUCUCTT against Evi5,inactive: 0.67
17,GCAGAUUUGAAGCAUAUUGTT against N4bp1,inactive: 0.0609
18,GCCAAGAUGGUUAAAUACCTT against Ankrd34b,inactive: -1.64
19,GGAACUAUCACGUGUUCUATT against Myo7a,inactive: 0.837
20,CCUCUAGCCAUCUACUUUGTT against Rad9b,inactive: -1.03
21,CCGAGGCAUCUUAGCUUAATT against Nxt1,inactive: -0.348
22,GGCGGAAAUCUUGAGCAAATT against Slc28a2,active: 4.39

# Quoted at random: 6 entries already listed.
row,Sequence,z-score
17,GCAGAUUUGAAGCAUAUUGTT against N4bp1,inactive: 0.0609
22,GGCGGAAAUCUUGAGCAAATT against Slc28a2,active: 4.39
1,CGGUCCUGAGGAAGUGUUATT against Wfdc1,inactive: 0.655
18,CCAAACCAGGUGUUGUCUUTT against Esam,inactive: 0.308
8,GGGUGCCUUAAAAAAACUCTT against Olfr136,inactive: 0.786
18,GCCUGAAUCCGCCACAUUGTT against Cx3cl1,inactive: 1.6

# The listing continues:

row,Sequence,z-score
1,CCGAGACAUAUACAAAGGATT against Klkb1,inactive: -0.36
2,GCCUUGACCUCAUACCUUGTT against Spc24,inactive: -1.5
3,GGAAGUCUUAGAAGUAGCCTT against Diaph3,inactive: 0.691
4,GCAUCAUUAAAAAGGAGAGTT against Shmt1,inactive: -0.178
5,GGUCCUCAAUGAAAUGAGATT against Krt12,inactive: 1.05
6,GAGUCUGGUUAUGUGGCAUTT against Scgb1a1,inactive: 0.442
7,GGUGUAAUUCUCAUUGUGCTT against Slc10a2,inactive: 0.589
8,GGCAACAUUCCUUAUUCACTT against Sh3bgrl3,inactive: -0.0568
9,GGAGUCAACACACAUCAAGTT against Zfp13,inactive: 1
10,UACUUAGGCCCUUGAGCAUTT against Timm10,inactive: 0.725
11,GGACUAUAUUCUUAACUCATT against F11r,inactive: 0.121
12,GGAUUUUGAAGCCAGUUGCTT against Ubash3a,inactive: 0.731
13,AUGGGACUCAUGUAAUGGUTT against Ly6k,inactive: 0.735
14,GGGCAUUGCCAGGAAUUAUTT against Lrp1b,inactive: 1.31
15,GCAUCUCCCUUAUGUCUGUTT against Nubp2,active: 2.12
16,GGCUUAUGUGGUCCUUGGCTT against Banf1,inactive: -1.5
17,CCUGUCUUUAGUGGACUUUTT against Olfr1453,inactive: 0.22
18,CCACAUGUUUGUCUCAAAATT against Gskip,inactive: 1.28
19,GGCACCAUUGAAAUUCUGATT against Rplp0,inactive: 0.152
20,CGCUGCUGGUUCAUAUUGGTT against Zdhhc25,inactive: -0.859
21,GGUACUGGAUGAGCUGAGGTT against Letm1,inactive: 0.362
22,GCCAGGAUUAUCUUGAGAATT against Prpf39,inactive: -1.42

row,Sequence,z-score
1,UGGGCCUUGUAGGCUUCAUTT against Rell2,active: 2.3
2,CCAACUACUAGAAUGUAUCTT against Fam124b,inactive: -1.34
3,CGUGGUCUUCACGAUUGGATT against Pde4c,active: 3.71
4,GGAGAGGACAGAAAGCAAATT against Mchr1,inactive: 0.113
5,CCAUUGAGGGAAUGAUUAATT against Acvr1b,inactive: 0.596
6,CCAAAGAUACCAUUUUGCATT against Lypd8,inactive: 0.599
7,GCUCAGUAUACUUCAGCAUTT against Sebox,inactive: -0.706
8,GGAGGGUCCUUUUUCACAUTT against Asph,inactive: -0.5
9,GUCGCCGUGUAUGUAUCAUTT against Olfr727,inactive: 0.812
10,GGUUAAAGGAAAAUGACACTT against Cdh6,inactive: -0.306
11,GGCCAUGAUAUCCUCUUCUTT against Vars,inactive: -0.628
12,GGAGCUGCUAUGUACACAUTT against Bptf,inactive: 0.364
13,GCUCCAGUUGCCUCUUUUUTT against Olfr900,inactive: -0.0521
14,CCAUAUCAUUGAUAUAGCUTT against Thoc3,inactive: -0.0534
15,GGUGGAGGAUUUUUCAGAUTT against Hs6st2,active: 2.42
16,GGGAAAUUUAAAAACCUGGTT against Hoxa2,inactive: -0.139
17,GCAGUGGGAGUAUACAUCUTT against Olfr847,inactive: 0.502
18,GGAAUCCUUCACUGAUGAATT against Pilrb1,inactive: -1.87
19,GGAAGUUCGAUGUUCCUAGTT against Cep85,inactive: 0.779
20,GGUUAAAGGUGUCUAUAAUTT against Smchd1,inactive: 0.743
